In experiment [1] the target is T1, XcpIp, soluble periplasmic domain of the minor pseudopilin XcpI (Pseudomonas aeruginosa) (UniProt Q00516).
T1 sequence: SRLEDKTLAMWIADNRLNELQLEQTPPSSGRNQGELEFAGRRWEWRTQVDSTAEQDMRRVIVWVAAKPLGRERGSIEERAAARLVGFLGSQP
Briefly: cross-linking.

Experiment [2] addresses T2, XcpKp, soluble periplasmic domain of the minor pseudopilin XcpK (Pseudomonas aeruginosa) (UniProt Q00518).
T2 sequence: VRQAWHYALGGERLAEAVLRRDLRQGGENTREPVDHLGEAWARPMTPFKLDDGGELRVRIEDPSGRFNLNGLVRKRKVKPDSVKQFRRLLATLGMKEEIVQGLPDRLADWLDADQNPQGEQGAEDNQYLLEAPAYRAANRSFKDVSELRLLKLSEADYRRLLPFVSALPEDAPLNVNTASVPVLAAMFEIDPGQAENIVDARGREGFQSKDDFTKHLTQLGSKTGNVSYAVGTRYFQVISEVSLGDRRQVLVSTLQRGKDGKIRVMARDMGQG
Briefly: cross-linking.

No constants are given. Whether binding was seen depends on the method and setting. A result given as binding can be weak or reduced; the word gives no strength.

For the substance “XcpHp, soluble periplasmic domain of the minor pseudopilin XcpH (from UniProt Q00515) (domain or fragment)”, the binding result in experiment [1] and in experiment [2] was “binds” in each case.

Values taken from publication doi:10.1101/2020.12.11.420943.
